Test results reported in paper PMC12255776.
No constants are given. Whether binding was seen depends on the method and setting. For some of these results: Binding seen in cells or lysates may run through a third protein. Some binding calls cover weakened binding; strength is not graded here. For some of these results: Where a sequence is shown, tags or fusion partners need not be part of it. Values belong to the molecule of their own block, whether it stands above or below them.

Protein sequences, listed by entry. Tags and fused reporters are not part of them. Lines headed by an entry give the natural chain unless they say otherwise; changes in a name come on top. Residues count along the entry.
UniProt Q86U44: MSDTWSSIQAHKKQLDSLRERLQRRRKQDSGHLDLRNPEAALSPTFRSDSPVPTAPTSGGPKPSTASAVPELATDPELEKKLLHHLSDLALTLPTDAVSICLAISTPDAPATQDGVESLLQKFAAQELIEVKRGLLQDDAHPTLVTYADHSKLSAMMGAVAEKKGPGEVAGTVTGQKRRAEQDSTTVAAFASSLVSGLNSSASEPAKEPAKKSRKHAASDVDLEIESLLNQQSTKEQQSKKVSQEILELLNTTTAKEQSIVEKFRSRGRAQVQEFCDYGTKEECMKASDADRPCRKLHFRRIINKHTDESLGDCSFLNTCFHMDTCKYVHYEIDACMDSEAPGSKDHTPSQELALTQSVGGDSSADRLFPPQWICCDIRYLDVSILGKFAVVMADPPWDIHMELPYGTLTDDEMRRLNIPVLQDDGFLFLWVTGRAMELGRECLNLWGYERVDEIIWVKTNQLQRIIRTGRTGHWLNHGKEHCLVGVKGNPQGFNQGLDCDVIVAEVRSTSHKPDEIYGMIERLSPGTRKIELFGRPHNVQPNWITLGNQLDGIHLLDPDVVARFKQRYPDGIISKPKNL
Flag-METTL3 ΔN (N-terminal truncated, 260–580 aa): residues 260-580 of Q86U44
UniProt Q969H0: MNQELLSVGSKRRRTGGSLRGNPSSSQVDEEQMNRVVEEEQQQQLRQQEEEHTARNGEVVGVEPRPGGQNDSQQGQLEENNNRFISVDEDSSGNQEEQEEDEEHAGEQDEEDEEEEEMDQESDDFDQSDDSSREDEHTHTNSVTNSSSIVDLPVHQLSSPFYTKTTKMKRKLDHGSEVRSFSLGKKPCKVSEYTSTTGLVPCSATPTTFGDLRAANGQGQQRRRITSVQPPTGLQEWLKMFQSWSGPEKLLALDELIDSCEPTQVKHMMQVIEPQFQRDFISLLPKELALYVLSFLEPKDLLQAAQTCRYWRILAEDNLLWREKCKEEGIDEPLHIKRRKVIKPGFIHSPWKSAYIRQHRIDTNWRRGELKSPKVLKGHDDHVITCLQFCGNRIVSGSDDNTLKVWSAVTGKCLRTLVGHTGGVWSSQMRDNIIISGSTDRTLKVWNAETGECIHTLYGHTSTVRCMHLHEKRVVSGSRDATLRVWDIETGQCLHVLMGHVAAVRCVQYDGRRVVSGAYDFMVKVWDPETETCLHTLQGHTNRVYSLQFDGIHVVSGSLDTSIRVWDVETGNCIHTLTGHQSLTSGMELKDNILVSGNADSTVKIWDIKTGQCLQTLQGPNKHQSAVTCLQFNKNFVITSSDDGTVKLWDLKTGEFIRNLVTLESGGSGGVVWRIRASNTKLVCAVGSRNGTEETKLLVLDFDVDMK

Legend:
[1] = target: Flag-METTL3 wild type (full-length human METTL3 in pSEB-3×Flag) (human) (UniProt Q86U44); assay: co-IP; Huh-7 cells cotransfected with HA-tagged and Flag-tagged plasmids, 48 h; precleared lysates (50 mM Tris-HCl pH 8.0, 150 mM NaCl, 5 mM EDTA, 0.5% Triton X-100, 0.1% sodium deoxycholate) with anti-Flag or anti-HA antibodies overnight, protein A/G magnetic beads 4 h, immunoblot; for WTAP also with TMG or OSMI-1 treatment of the cells
[2] = target: Flag-METTL3 3A mutant (T186A/S192A/S193A) (human) (UniProt Q86U44); assay: as above
[3] = target: METTL3 (methyltransferase-like 3), endogenous (human (endogenous in Huh-7)) (UniProt Q86U44); assay: co-IP; endogenous METTL3 and OGT in Huh-7 cells
[4] = target: Flag-METTL3 ΔN (N-terminal truncated, 260–580 aa) (human) (UniProt Q86U44); assay: co-IP; HA-OGT and Flag-METTL3 (WT, ΔC, ΔN) in HEK293 cells
[5] = target: Flag-METTL3 wild type (full-length human METTL3 in pSEB-3×Flag) (human) (UniProt Q86U44); assay: as above
[6] = target: Flag-METTL3 wild type (full-length human METTL3 in pSEB-3×Flag) (human) (UniProt Q86U44); assay: co-IP; Huh-7 cells cotransfected with HA-tagged and Flag-tagged plasmids, 48 h; precleared lysates (50 mM Tris-HCl pH 8.0, 150 mM NaCl, 5 mM EDTA, 0.5% Triton X-100, 0.1% sodium deoxycholate) with anti-Flag or anti-HA antibodies overnight, protein A/G magnetic beads 4 h, immunoblot; for WTAP also with TMG or OSMI-1 treatment of the cells; remark: listed apart in the source
[7] = target: METTL3 of the in vitro GST pull-down (human) (UniProt Q86U44); assay: pull-down; GST pull-down in vitro; immunoblot and Coomassie blue staining; both purified

binding [1]: binds | binding [2]: binds
Molecule: HA-FBXW7 (from UniProt Q969H0 1-707)

binding [7]: binds
B3: OGT of the in vitro GST pull-down (enzyme, UniProt O15294 1-1046)
chain: MASSVGNVADSTEPTKRMLSFQGLAELAHREYQAGDFEAAERHCMQLWRQEPDNTGVLLLLSSIHFQCRRLDRSAHFSTLAIKQNPLLAEAYSNLGNVYKERGQLQEAIEHYRHALRLKPDFIDGYINLAAALVAAGDMEGAVQAYVSALQYNPDLYCVRSDLGNLLKALGRLEEAKACYLKAIETQPNFAVAWSNLGCVFNAQGEIWLAIHHFEKAVTLDPNFLDAYINLGNVLKEARIFDRAVAAYLRALSLSPNHAVVHGNLACVYYEQGLIDLAIDTYRRAIELQPHFPDAYCNLANALKEKGSVAEAEDCYNTALRLCPTHADSLNNLANIKREQGNIEEAVRLYRKALEVFPEFAAAHSNLASVLQQQGKLQEALMHYKEAIRISPTFADAYSNMGNTLKEMQDVQGALQCYTRAIQINPAFADAHSNLASIHKDSGNIPEAIASYRTALKLKPDFPDAYCNLAHCLQIVCDWTDYDERMKKLVSIVADQLEKNRLPSVHPHHSMLYPLSHGFRKAIAERHGNLCLDKINVLHKPPYEHPKDLKLSDGRLRVGYVSSDFGNHPTSHLMQSIPGMHNPDKFEVFCYALSPDDGTNFRVKVMAEANHFIDLSQIPCNGKAADRIHQDGIHILVNMNGYTKGARNELFALRPAPIQAMWLGYPGTSGALFMDYIITDQETSPAEVAEQYSEKLAYMPHTFFIGDHANMFPHLKKKAVIDFKSNGHIYDNRIVLNGIDLKAFLDSLPDVKIVKMKCPDGGDNADSSNTALNMPVIPMNTIAEAVIEMINRGQIQITINGFSISNGLATTQINNKAATGEEVPRTIIVTTRSQYGLPEDAIVYCNFNQLYKIDPSTLQMWANILKRVPNSVLWLLRFPAVGEPNIQQYAQNMGLPQNRIIFSPVAPKEEHVRRGQLADVCLDTPLCNGHTTGMDVLWAGTPMVTMPGETLASRVAASQLTCLGCLELIAKNRQEYEDIAVKLGTDLEYLKKVRGKVWKQRISSPLFNTKQYTMELERLYLQMWEHYAAGNKPDHMIKPVEVTESA

More lines, now with the values behind:

B1: OGT, endogenous (enzyme, UniProt O15294 1-1046)
chain: B3 chain
binding [3]: binds

B2: HA-OGT (enzyme, UniProt O15294 1-1046)
chain: B3 chain
binding [4]: binds | binding [5]: binds | binding [6]: binds
